Results are given in words; binding and its absence hold for the method and conditions named. Binding seen in cells or lysates may run through a third protein. A yes stands for co-enrichment or nearness to the bait. Other partners may have been found. Where a sequence is shown, tags or fusion partners need not be part of it. Each block holds one molecule with its values, some of them ahead of it.
Molecular target: T1, GFP::CFP-1 (C. elegans) (UniProt Q9XUE7)
T1 sequence: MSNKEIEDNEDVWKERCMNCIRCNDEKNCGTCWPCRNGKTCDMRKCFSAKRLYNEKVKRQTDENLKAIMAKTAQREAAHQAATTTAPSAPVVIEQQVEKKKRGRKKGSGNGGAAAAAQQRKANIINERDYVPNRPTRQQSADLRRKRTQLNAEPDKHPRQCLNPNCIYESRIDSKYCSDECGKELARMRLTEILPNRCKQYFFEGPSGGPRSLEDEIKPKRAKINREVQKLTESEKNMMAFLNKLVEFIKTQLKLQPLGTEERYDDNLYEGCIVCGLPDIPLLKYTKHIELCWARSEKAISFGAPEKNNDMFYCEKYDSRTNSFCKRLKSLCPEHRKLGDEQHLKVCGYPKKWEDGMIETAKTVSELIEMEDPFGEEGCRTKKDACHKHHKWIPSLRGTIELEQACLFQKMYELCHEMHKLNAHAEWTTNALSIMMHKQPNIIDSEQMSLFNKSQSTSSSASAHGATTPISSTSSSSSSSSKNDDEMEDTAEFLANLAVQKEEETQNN
Test: affinity purification with mass spectrometry; GFP::CFP-1 immunoprecipitated on GFP-TRAP MA beads from 70 mg total protein extract of C. elegans embryos carrying set-2(syb2085) or set-2(ok952); IP buffer 50 mM HEPES/KOH pH 7.5, 300 mM KCl, 1 mM EDTA, 1 mM MgCl2, 0.2% Igepal-CA630, 10% glycerol; 4°C; benzonase treatment on the beads; control: WT animals without the GFP::CFP-1 allele

By UniProt entry, the sequences of proteins in these tests, tags left out. Where a name states a change or a piece, a line headed by the entry shows the natural chain unless it says otherwise.
UniProt Q17963: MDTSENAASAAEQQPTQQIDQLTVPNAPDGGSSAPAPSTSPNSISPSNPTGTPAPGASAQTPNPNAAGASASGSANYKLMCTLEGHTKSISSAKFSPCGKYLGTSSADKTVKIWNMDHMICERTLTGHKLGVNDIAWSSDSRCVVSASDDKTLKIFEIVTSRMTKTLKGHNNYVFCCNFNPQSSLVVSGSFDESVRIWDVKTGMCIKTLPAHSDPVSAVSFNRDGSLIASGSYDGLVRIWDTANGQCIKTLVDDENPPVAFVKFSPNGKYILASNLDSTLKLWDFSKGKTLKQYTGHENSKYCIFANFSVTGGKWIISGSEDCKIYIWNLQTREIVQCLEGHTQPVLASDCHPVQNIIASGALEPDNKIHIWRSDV
UniProt Q18221: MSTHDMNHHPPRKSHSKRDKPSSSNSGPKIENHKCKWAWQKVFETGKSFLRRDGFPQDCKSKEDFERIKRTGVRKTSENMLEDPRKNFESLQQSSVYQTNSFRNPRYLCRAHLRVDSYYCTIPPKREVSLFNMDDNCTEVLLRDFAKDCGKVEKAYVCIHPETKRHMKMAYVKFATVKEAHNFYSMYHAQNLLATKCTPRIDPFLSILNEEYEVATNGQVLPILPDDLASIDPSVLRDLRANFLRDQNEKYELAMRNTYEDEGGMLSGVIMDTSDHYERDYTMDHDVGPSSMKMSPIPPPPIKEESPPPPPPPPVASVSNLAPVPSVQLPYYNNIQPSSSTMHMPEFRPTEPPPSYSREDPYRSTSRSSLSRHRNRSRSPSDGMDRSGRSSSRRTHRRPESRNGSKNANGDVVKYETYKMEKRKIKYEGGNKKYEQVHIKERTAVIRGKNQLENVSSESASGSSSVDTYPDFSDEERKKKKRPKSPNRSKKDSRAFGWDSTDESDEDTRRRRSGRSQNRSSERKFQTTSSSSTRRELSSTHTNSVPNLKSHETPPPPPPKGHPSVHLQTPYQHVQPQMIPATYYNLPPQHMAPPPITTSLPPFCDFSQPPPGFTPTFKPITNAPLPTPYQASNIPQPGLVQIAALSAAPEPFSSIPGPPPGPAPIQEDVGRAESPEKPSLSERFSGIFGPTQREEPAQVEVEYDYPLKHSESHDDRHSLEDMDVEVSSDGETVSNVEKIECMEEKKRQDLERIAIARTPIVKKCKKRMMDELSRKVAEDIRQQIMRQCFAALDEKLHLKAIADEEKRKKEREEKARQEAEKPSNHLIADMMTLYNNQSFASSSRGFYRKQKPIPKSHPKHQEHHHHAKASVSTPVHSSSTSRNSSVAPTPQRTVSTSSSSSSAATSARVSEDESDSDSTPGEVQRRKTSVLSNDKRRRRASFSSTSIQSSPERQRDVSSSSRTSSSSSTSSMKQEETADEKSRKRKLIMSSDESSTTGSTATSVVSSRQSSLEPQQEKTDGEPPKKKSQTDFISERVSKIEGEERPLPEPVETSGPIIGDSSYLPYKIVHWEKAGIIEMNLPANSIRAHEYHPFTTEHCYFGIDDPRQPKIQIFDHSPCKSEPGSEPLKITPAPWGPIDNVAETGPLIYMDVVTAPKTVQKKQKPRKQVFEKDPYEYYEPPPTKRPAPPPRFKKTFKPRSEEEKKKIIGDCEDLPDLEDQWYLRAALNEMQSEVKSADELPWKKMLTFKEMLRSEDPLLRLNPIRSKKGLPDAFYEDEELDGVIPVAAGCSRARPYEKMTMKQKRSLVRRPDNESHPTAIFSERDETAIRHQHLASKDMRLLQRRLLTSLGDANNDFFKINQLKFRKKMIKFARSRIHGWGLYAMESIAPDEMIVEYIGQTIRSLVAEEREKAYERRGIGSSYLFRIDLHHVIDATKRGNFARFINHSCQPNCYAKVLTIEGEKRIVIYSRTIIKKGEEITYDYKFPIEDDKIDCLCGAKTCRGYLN

Molecule: SWD-2.1 (C. elegans (endogenous in embryos))
binding: binds

B1: RBBP-5 (protein, UniProt Q09309 1-454)
chain: MVEILDRTYGAQFPEELECHLDLQNASANCCKFNRWGSIVAVGCTDGRVLIYDFMTRNIARTFSAHCLPVSCLSWSRDGRKLLTSSADNSIAMFDVLAGTLLHRIRFNSMVTFAMFHPRNDNKAIVLQVNKQPTVEQFSPRIQTVLANDTPGSSDESASCVSYDRKGKYIIAGTGKGKLLIYNAETLKCVAWCKQNTVQQIRQIIVPMKSRFIITNTQDRVIRTYELEDLLHQRGQMVEAKYKVLDMVNKAAWKNVCTDSDGLYVCGASTKAHSLYIWESNTGSLIKILHGNKGEALLDVQWHPTRPIILSIAQGTVSMWTQAHVENWSAFAPEFQELEENEKYIEKENEFDMEDEDADEDMTSKSQDAEDDIIDVVNVRPEDYLASSDEEDCNIMKPARNLESGPLWYIPVPLDIENADNDQRLPDDIRNLDNLLNPAWVASAKGYELSPKSK
binding: binds

Next, values leading:

binding: binds
Molecule: WDR-5.1 (from UniProt Q17963 1-376)

binding: binds
Molecule: SET-2 H1447K, catalytically inactive, encoded by set-2(syb2085) (from UniProt Q18221 1-1507) (enzyme)

binding: binds
B2: ASH-2 (protein, UniProt G5EFZ3 1-570)
chain: MRSSKGGRGRQAAPKTAPTTVCYCDGKRELGSVEVVCSTCLKWFHGRCLKEFHELNSNGVPFMICYTFTCKQCRPTAEDWKAKKADLVQMCVTVLATLSAERLKADGKLSAEHVPEDFTYLSLKDEIVPYMNENWYMLTAIKQKKEWHQNLAPTLLKEKNIFVQHNDDDDLFALAEKNLSLLGPLHEAVKLIGKRPIERENREPRHIELPPIEGPKTRGASKRRHAEAPVTGKKQKLAADYSSTAAPNGVQIDIPFSKDNYRYYLTEVDPNVPEDPAWNQNQSSAYVIPSFHYRELLNPTVNVSSNDRAFQLSINGNSITGFEGYSMARASHGVSKGTWYFEVNFDDQPDDSHIRIGWSQSYASLQACVGYNKFSYGWRSKHGTKFHEAKGKKYHFGGFKQGDVLGCLIHLPVDKKLQIPANLPSEKYLPVSHKGFNLISFKANYFFEVQEESADIAKTLVEMPGSYIEFFHNGKSCGKAYENIYAGAYYPSISIFKSATATMNLGPKFRNLPRGATGIHARADEQQHEQTLSDMLYLVSKEVNLDHPPRVKREDDDDVKDIKKEIKQEI

Reference: article PMC8675910
